Experimental data taken from PubChem BioAssay AID1345085 (National Center for Advancing Translational Sciences (NCATS), 2018).
The inconclusive results got no clear call from the source; some entries with a clear call stand among them for comparison. Potencies of inconclusive entries are doubtful fits and often do not repeat. Calls of active or inactive are those of the source. Calls come from the whole dose curve; as a rule, active = well fitted cell-killing curve with a large enough effect; inconclusive = small, poorly fitted or top-dose-only effect, or effect the other way; inactive = no such curve, though single readings can be large or run the other way.

What follows are compounds tested on SKOV3 (assay: Confirmatory qHTS for gynecologic anti-cancer compounds from libraries of approved drugs and bioactive compounds). Conditions: gynecologic cancer cell panel viability, ATPlite luminescence, 48 h; series mostly up to 57.6 µM; activity change, negative = viability loss: at the top concentration.
Method in brief: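 Cells (1,000/well) were plated, left 16 h at 37 C/5% CO2, then given compound at 11 concentrations (1:3) from 57.5 uM to 0.977 nM for 48 h. ATPlite luminescence after 15 min at room temperature gave IC50 values.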
% is set by controls: 0 for no effect and ±100 for the full control effect; potency is the fitted concentration of half-maximal effect.
Note: nearly all actives have a fitted effect of over 55% in size.

| SMILES | activity change, negative = viability loss | Potency |
| --- | --- | --- |
| Cc1cnc(CNC(=O)c2c(=O)c3ccc(N4CCCN(C)CC4)nc3n3c2sc2ccccc23)cn1 | inactive: 5.48% [at 10.7 µM] |  |
| CCN[C@H]1C[C@H](C)S(=O)(=O)c2sc(S(N)(=O)=O)cc21 | inactive: -13.1% |  |
| COc1ccc2c(c1OC)C(=O)O[C@@H]2[C@H]1c2c(cc3c(c2OC)OCO3)CCN1C |  | inconclusive: 30600 nM [cytotoxic, partial curve, poor fit] |
| CNCc1ccc(-c2[nH]c3cc(F)cc4c3c2CCNC4=O)cc1 | inactive: 14.9% |  |
| CCN1C[C@H](C)n2c(c(O)c3c(=O)n(Cc4ccc(F)c(Cl)c4)nc(C(=O)NC)c32)C1=O |  | inconclusive: 122 nM [rising, partial curve, poor fit] |
| COc1cccc2c1C(=O)c1c(O)c3c(c(O)c1C2=O)C[C@@](O)(C(=O)CO)C[C@@H]3O[C@H]1C[C@H](N)[C@H](O[C@@H]2CCCCO2)[C@H](C)O1 |  | active: 685 nM |
| CS(=O)(=O)c1ccc(C(=O)Nc2ccc(Cl)c(-c3ccccn3)c2)c(Cl)c1 |  | inconclusive: 544 nM [rising, full curve, poor fit] |
| Cc1ccc(C(=O)N(CCCN)C(c2nc3cc(Cl)ccc3c(=O)n2Cc2ccccc2)C(C)C)cc1 (centres undefined) |  | inconclusive: 15.3 nM [cytotoxic, full curve] |
| N=C(N)c1ccc(OCCCCCOc2ccc(C(=N)N)cc2)cc1 |  | inconclusive: 4320 nM [rising, partial curve, poor fit] |
| Cn1c(=O)c(-c2c(Cl)cccc2Cl)cc2cnc(Nc3cccc(C(=O)O)c3)nc21 |  | inconclusive: 48.5 nM [rising, full curve, poor fit] |
| COc1cc2c(c(OC)c1OC)-c1ccc(OC)c(=O)cc1[C@@H](NC(C)=O)CC2 | inactive: 20.6% [at 486 µM] |  |
| CCc1c2c(nc3ccc(OC(=O)N4CCC(N5CCCCC5)CC4)cc13)-c1cc3c(c(=O)n1C2)COC(=O)[C@]3(O)CC |  | inconclusive: 122 nM [rising, partial curve, poor fit] |
| O=C(c1ccc(/C=C/c2n[nH]c3ccccc23)cc1)N1CCNCC1 |  | active: 21700 nM |
| COc1ccc(-c2ccc3c(N4CCOCC4C)nc(N4CCOCC4C)nc3n2)cc1CO (centres undefined) |  | inconclusive: 76.9 nM [cytotoxic, full curve, poor fit] |
| CN1CCN(CCOc2cc(OC3CCOCC3)c3c(Nc4c(Cl)ccc5c4OCO5)ncnc3c2)CC1 | inactive: -28% |  |
| Nc1ccn([C@@H]2O[C@H](CO)[C@@H](O)C2(F)F)c(=O)n1 |  | active: 1370 nM |
| O=C1Cc2cc(CCN3CCN(c4nsc5ccccc45)CC3)c(Cl)cc2N1 | inactive: 3.98% |  |
| COc1ccc(OC)c(-c2nnc3ccc(-c4ccc(OC)c(O[C@@H]5CCOC5)c4)nn23)c1 | inactive: -8.13% |  |
| Cn1cc(-c2ccc3ncc(Cc4ccc5ncccc5c4)n3n2)cn1 |  | inconclusive: 193 nM [rising, full curve, poor fit] |
| COc1cc2c(Oc3ccc(-c4cnc(Nc5ccc(F)cc5)n(C)c4=O)cc3F)ccnc2cc1OCCCN1CCOCC1 | inactive: -11.2% |  |
| N#CC1(c2cccc(C(=O)Nc3cc(Oc4ccc5nc(NC(=O)C6CC6)sc5n4)ccc3F)c2Cl)CC1 |  | active: 17200 nM |
| Cc1ccc(C(=O)Nc2ccc(CN3CCN(C)CC3)c(C(F)(F)F)c2)cc1C#Cc1cnc2cccnn12 |  | active: 12200 nM |
| CC[C@@]1(O)C(=O)OCc2c1cc1n(c2=O)Cc2cc3cc(O)ccc3nc2-1 |  | inconclusive: 153 nM [cytotoxic, full curve] |
| COC(C(=O)N1Cc2[nH]nc(NC(=O)c3ccc(N4CCN(C)CC4)cc3)c2C1)c1ccccc1 (centres undefined) | inactive: 10.3% |  |
| Cc1nc(Nc2ncc(C(=O)Nc3c(C)cccc3Cl)s2)cc(N2CCN(CCO)CC2)n1 |  | active: 21700 nM |
| COc1cc(N2CCC(N)CC2)ccc1Nc1ncc(Cl)c(-c2c[nH]c3ccccc23)n1 |  | active: 21700 nM |
| CC1=C(CO)C(=O)O[C@@H]([C@@H](C)[C@H]2CC[C@H]3[C@@H]4C[C@H]5O[C@]56[C@@H](O)C=CC(=O)[C@]6(C)[C@H]4CC[C@]23C)C1 |  | inconclusive: 5300 nM [rising, partial curve] |
| O=C(NOC[C@H](O)CO)c1ccc(F)c(F)c1Nc1ccc(I)cc1F |  | inconclusive: 5440 nM [cytotoxic, partial curve] |
| Cn1cnc([N+](=O)[O-])c1Sc1ncnc2nc[nH]c12 |  | inconclusive: 8630 nM [cytotoxic, full curve] |

An excerpt of these results, field by field:
COc1ccc(OC)c(-c2nnc3ccc(-c4ccc(OC)c(O[C@@H]5CCOC5)c4)nn23)c1
  activity change, negative = viability loss: inactive: -8.13%
Cn1cc(-c2ccc3ncc(Cc4ccc5ncccc5c4)n3n2)cn1
  Potency: inconclusive: 193 nM [rising, full curve, poor fit]
